Data taken from paper PMC11109262.

Target: cofilin (mouse (endogenous in retina))
Test: co-IP; wild type murine retinal lysates; magnetic beads coated (+) or uncoated (-) with cofilin antibody; RPGR's retinal specific isoform detected in the bound fraction with GT335 antibody

B1: retinitis pigmentosa GTPase regulator (RPGR), retinal specific isoform (protein, UniProt Q9R0X5-5 1-1305)
chain: MAESESLVPDTGAVFTFGKTKFAENIPSKFWFKNDIPICLSCGDEHTAIVTGNNKLYMFGSNNWGQLGLGSKAAIIKPTCIKALKPEKVKLAACGRNHTLVSTDTGGVYAAGGNNEGQLGLGDTDDRDTFHQIVFFTPADTIKQLSAGANTSAALTEDGKLFMWGDNSEGQIGLEDKSNVCIPHEVTVGKPISWISCGYYHSAFVTMDGELYTFGEPENGKLGLPNELLMNHRSPQRVLGIPERVIQVACGGGHTVVLTEKVVYAFGLGQFGQLGLGTFLFETSEPKIIERIKDQKICHISCGENHTALMTELGLLYTFGDGRHGKLGLGMENFTNQFFPTLCSNFLRFAVQLIACGGCHMLVFATPRLGTIDEPKFEDVYEPYISTGSFSINDLSPRSSLNRSLSARLRRRERERPPCSASMVGTLPPLEGTSASTSAYFYPSSPPFHLSVNNYPEKSPSESMEPLDSDYFEDKMNKDTETENSSAVDSENFGETNDILNMTHMMTTSSNEKLLDFSPIQKQQNQDTFEKVMESTPCTENEDSYEYEEMSKIKEVTVYKQYLAKGIYMIRPAEILEAFSDEEVGNGLDQVEEPRVFTDGKGLQSKQVGKESDEEIVSEKKTEVMEVADVKKIRESEENSKSDSLFDDLPDKTMNSESEDNKDIAEERRSSEQNMTFDSETELVEEPDSYMECERHSEQDSAEELEQPKLVEYSSEEKDEKDEKDDDEVETENLWYDRNCTEQETENVFRATRFFPKFDLKHDHLSGIPEEQEGPEDSEGNVVVEQVVQAQKENLEFEGDRKEAKAEAPSDVITEKEVSESERESGGEREDRSEGDGDQICEKVSLETEHLQRAQGKQERKKGKDKRARCILDMKEREEDKGWEKGSEGGDKMKRDEGNQEKRKKEMEERDAGDERSEEEEGEEEEPEEGEKEEGGEEEEGTSEDQSREDEGDRQEKEGRREGKGRQEDGREGWKEGEEQEQEEEIEEGEEEEREGEEEGGEEEGEGEGEREEEGEGEEEGEGEEEGEGEEEGEGEEEGEGEEEGEGEEEGEGEEEGEGEEDGEGEEDGEGEEEGEGEEEGEREEDGEGEEDGEGEEEGEGEEEGEGEEEGEGEEEGEGEGEEEGEGEWEGEEEGEGEEEGEGEEEGEGEEEGEGEEEGEGEEEGGEDDEGEELEKKKGDITEEEEEEEEGQEGDEREREEHGSCEDDVEEDKTYDREEGEYKKAIGKVADNESQEDRKQSPKVSKINGSMKYGRHGTYSEKPITNLGKTQPSKMPMESRQLVENGLLGSERFWSDVLPLYLELK
modifications: glutamylated (detected using GT335 antibody); residues not stated
  binding: binds

Results are given in words; binding and its absence hold for the method and conditions named. In cells and extracts the contact can be indirect. Binding can be weak; no strength is given.
